Publication PMC9918491
These are yes or no findings as the source states them, for the method shown. Binding seen in cells or lysates may run through a third protein. Some binding calls cover weakened binding; strength is not graded here.

Protein sequences, listed by entry. Tags and fused reporters are not part of them.
UniProt P45983: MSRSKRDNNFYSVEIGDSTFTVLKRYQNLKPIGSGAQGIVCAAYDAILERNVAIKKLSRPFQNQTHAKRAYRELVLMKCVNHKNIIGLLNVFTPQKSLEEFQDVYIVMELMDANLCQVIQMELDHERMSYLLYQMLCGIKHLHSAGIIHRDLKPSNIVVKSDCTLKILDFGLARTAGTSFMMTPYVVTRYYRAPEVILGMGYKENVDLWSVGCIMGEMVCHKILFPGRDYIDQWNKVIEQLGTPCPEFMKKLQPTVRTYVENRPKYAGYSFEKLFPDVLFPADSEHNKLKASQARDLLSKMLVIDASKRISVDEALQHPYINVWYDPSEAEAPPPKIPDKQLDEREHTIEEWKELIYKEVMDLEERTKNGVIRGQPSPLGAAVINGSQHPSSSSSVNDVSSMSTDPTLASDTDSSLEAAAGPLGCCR

Molecular target: T1, TNF receptor-associated factor 4 (TRAF4) (human (endogenous in HT29)) (UniProt Q9BUZ4)
T1 sequence: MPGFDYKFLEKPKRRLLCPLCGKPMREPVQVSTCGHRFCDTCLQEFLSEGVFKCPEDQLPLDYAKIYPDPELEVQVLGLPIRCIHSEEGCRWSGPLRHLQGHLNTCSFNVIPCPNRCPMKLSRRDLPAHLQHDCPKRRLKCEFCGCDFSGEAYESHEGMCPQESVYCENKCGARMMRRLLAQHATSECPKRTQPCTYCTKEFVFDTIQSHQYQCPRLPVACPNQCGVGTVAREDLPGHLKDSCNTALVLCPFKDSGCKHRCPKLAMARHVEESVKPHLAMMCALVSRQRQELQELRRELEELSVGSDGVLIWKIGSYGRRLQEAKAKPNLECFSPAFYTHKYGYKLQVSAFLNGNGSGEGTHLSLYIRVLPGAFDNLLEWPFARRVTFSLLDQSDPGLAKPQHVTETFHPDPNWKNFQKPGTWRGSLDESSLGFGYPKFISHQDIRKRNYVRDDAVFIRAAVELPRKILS
Assay: co-IP; HT29 cells treated with or without IR (4 Gy) for 30 min; whole-cell extract subjected to co-IP; which protein was precipitated not given

“c-Jun N-terminal kinase 1 (JNK1) (from UniProt P45983 1-427)” was tested, and the binding was “binds”.
In the case of “c-Jun N-terminal kinase 2 (JNK2) (from UniProt P45984 1-424)”, the binding is reported as “binds”.
